Assay results published in the supplement of paper PMC6411743.
± gives the standard deviation of the averaged measurements. Some of the results follow.

Chains of the proteins cited; added tags and fusions are not shown. Lines headed by an entry give the natural chain unless they say otherwise; changes in a name come on top.
UniProt Q8NC51: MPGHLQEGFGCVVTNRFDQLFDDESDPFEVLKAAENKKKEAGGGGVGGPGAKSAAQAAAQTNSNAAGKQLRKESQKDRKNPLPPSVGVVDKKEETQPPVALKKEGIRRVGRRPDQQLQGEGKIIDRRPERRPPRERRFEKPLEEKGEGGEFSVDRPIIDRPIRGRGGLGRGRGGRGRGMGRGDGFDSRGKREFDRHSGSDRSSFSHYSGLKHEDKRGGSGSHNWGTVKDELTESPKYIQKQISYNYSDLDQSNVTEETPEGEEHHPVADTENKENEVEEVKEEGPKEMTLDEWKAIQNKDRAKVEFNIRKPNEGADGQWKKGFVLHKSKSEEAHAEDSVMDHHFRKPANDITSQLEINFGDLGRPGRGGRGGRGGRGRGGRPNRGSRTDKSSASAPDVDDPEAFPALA
UniProt Q8TEQ6: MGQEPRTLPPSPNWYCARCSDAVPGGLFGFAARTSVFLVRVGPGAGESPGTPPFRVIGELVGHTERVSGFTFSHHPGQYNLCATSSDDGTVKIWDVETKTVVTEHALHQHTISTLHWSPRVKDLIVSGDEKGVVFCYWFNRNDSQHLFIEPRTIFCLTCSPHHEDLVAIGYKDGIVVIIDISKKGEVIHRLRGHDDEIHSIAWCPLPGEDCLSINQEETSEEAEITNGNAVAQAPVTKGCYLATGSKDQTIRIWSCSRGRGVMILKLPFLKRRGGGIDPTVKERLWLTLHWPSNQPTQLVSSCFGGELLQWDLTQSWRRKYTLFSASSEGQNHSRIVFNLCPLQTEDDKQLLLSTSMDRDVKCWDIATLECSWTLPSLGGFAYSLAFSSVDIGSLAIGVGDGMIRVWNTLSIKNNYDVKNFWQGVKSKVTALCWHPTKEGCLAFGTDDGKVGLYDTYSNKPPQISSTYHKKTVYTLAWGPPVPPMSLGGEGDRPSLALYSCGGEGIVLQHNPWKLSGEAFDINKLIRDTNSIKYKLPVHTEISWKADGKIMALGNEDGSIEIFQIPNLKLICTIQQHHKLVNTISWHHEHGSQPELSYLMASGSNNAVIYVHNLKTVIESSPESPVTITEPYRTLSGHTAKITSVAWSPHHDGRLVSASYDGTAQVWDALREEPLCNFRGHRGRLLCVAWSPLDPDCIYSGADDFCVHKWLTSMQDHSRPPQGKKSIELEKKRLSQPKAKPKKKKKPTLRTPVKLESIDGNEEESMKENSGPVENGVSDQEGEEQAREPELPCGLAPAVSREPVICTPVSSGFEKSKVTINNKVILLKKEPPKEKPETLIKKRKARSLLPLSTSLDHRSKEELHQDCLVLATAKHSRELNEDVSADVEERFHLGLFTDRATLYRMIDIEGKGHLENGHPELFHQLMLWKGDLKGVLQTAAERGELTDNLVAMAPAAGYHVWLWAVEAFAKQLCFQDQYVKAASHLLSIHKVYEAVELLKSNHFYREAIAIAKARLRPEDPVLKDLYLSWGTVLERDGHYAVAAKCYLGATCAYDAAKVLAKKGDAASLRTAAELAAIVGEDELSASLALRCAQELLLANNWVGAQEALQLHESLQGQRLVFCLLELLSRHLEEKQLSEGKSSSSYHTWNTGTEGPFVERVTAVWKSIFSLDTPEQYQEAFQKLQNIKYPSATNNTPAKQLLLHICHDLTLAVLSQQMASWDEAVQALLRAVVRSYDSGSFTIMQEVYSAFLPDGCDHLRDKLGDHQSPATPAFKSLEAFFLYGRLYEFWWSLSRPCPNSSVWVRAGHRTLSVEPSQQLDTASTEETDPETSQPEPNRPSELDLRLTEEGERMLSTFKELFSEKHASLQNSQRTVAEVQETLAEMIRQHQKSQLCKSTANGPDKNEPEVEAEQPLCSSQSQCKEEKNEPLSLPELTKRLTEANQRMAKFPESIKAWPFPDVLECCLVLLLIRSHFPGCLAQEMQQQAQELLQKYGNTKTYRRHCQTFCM
UniProt Q8NF37: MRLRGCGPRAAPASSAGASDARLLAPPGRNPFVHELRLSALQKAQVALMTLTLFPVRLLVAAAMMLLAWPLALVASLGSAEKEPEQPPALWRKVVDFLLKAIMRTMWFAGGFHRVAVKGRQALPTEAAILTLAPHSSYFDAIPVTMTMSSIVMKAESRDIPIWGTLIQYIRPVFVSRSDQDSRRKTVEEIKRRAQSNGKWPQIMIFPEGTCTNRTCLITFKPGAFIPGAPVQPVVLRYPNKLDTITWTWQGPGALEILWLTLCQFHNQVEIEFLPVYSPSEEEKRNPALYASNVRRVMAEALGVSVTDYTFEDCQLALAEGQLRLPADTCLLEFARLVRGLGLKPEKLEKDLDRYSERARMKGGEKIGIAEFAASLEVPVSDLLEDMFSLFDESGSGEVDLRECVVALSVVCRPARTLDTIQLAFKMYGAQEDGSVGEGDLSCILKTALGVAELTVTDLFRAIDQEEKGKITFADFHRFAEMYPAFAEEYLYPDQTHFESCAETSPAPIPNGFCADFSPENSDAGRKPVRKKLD
UniProt Q8IXB1: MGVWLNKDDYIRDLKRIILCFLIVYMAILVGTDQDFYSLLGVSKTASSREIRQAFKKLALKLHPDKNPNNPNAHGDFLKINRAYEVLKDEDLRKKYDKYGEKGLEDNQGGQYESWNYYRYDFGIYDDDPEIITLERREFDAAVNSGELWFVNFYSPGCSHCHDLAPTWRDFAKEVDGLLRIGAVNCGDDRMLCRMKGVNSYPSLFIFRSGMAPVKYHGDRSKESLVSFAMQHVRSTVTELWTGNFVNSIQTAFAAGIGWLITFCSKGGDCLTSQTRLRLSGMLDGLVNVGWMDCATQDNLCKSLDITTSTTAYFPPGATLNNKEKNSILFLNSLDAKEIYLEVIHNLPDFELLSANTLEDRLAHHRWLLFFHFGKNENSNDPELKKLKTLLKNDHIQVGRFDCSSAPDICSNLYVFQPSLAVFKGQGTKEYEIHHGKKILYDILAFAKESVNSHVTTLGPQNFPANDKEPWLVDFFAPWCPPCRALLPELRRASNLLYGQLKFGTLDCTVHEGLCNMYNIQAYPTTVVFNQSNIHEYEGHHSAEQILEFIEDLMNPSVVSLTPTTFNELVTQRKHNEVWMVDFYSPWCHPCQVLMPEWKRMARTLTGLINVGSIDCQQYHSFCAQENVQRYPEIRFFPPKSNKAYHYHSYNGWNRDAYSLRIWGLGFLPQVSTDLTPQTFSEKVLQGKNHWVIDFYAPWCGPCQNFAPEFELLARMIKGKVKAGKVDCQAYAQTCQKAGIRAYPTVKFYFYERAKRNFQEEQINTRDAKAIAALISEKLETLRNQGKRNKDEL
UniProt Q8NB37: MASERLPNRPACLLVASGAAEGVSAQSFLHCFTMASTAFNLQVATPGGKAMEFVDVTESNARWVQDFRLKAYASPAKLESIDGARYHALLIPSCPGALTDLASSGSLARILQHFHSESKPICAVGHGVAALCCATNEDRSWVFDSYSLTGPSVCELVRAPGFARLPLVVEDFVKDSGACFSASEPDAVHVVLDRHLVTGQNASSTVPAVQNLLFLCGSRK

Compound: Nc1nc2c(ncn2[C@@H]2O[C@H](COP(=O)(O)OP(=O)(O)OP(=O)(O)O)[C@@H](O)[C@H]2O)c(=O)[nH]1 [guanosine triphosphate]
Test: NP40-soluble protein abundance relative to vehicle (solubility fold change) (ratio); higher = more soluble protein in presence of GTP
Description: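 Solubility proteome profiling in Jurkat crude lysate. Lysate was treated with Mg-GTP (0.1-10 mM) for 10 min at room temperature and 3 min at 37 °C, then solubilised with 0.8% NP40 and benzonase, followed by ultracentrifugation. Proteins were quantified by TMT10 LC-MS/MS; the value is the NP40-soluble abundance relative to the NP40-processed vehicle, from 3 independent experiments.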

UniProt Q8NC51 and related entries
NP40-soluble protein abundance (concentration: 0.1mM): 0.929 ± 0.049 | NP40-soluble protein abundance (concentration: 0.5mM): 0.937 ± 0.054 | NP40-soluble protein abundance (concentration: 1mM): 1.07 ± 0.041 | NP40-soluble protein abundance (concentration: 2mM): 1.08 ± 0.031 | NP40-soluble protein abundance (concentration: 4mM): 1.162 ± 0.0055 | NP40-soluble protein abundance (concentration: 6mM): 1.26 ± 0.067 | NP40-soluble protein abundance (concentration: 8mM): 1.3 ± 0.084 | NP40-soluble protein abundance (concentration: 10mM): 1.59 ± 0.06

GEMIN5 (UniProt Q8TEQ6)
NP40-soluble protein abundance (concentration: 0.1mM): 1.05 ± 0.049 | NP40-soluble protein abundance (concentration: 0.5mM): 1.07 ± 0.051 | NP40-soluble protein abundance (concentration: 1mM): 0.988 ± 0.047 | NP40-soluble protein abundance (concentration: 2mM): 1.02 ± 0.074 | NP40-soluble protein abundance (concentration: 4mM): 1.03 ± 0.061 | NP40-soluble protein abundance (concentration: 6mM): 1.01 ± 0.072 | NP40-soluble protein abundance (concentration: 8mM): 0.985 ± 0.026 | NP40-soluble protein abundance (concentration: 10mM): 0.965 ± 0.058

LPCAT1 (UniProt Q8NF37)
NP40-soluble protein abundance (concentration: 0.1mM): 1.06 ± 0.098 | NP40-soluble protein abundance (concentration: 0.5mM): 1.05 ± 0.13 | NP40-soluble protein abundance (concentration: 1mM): 1 ± 0.098 | NP40-soluble protein abundance (concentration: 2mM): 0.971 ± 0.065 | NP40-soluble protein abundance (concentration: 4mM): 0.966 ± 0.079 | NP40-soluble protein abundance (concentration: 6mM): 1.01 ± 0.13 | NP40-soluble protein abundance (concentration: 8mM): 0.999 ± 0.13 | NP40-soluble protein abundance (concentration: 10mM): 0.968 ± 0.12

UniProt Q8IXB1 and related entries
NP40-soluble protein abundance (concentration: 0.1mM): 1.17 ± 0.21 | NP40-soluble protein abundance (concentration: 0.5mM): 1.06 ± 0.11 | NP40-soluble protein abundance (concentration: 1mM): 1.08 ± 0.1 | NP40-soluble protein abundance (concentration: 2mM): 1.17 ± 0.15 | NP40-soluble protein abundance (concentration: 4mM): 1.1 ± 0.11 | NP40-soluble protein abundance (concentration: 6mM): 1.11 ± 0.16 | NP40-soluble protein abundance (concentration: 8mM): 1.1 ± 0.11 | NP40-soluble protein abundance (concentration: 10mM): 1.06 ± 0.084

UniProt Q8NB37 and related entries
NP40-soluble protein abundance (concentration: 0.1mM): 0.992 ± 0.051 | NP40-soluble protein abundance (concentration: 0.5mM): 0.938 ± 0.041 | NP40-soluble protein abundance (concentration: 1mM): 0.981 ± 0.038 | NP40-soluble protein abundance (concentration: 2mM): 0.941 ± 0.043 | NP40-soluble protein abundance (concentration: 4mM): 0.981 ± 0.025 | NP40-soluble protein abundance (concentration: 6mM): 0.924 ± 0.017 | NP40-soluble protein abundance (concentration: 8mM): 0.885 ± 0.021 | NP40-soluble protein abundance (concentration: 10mM): 0.904 ± 0.031
